PubChem BioAssay AID493014 (National Center for Advancing Translational Sciences (NCATS), 2011)
Some of the results follow. The main result of the screen is listed elsewhere. These columns were measured beside it and carry no call. Compounds called inactive in the main read-out are mostly missing here. The note in brackets gives the kind of curve behind each potency; many fits are weak.

Assay: qHTS Assay to Find Inhibitors of Chronic Active B-Cell Receptor Signaling
Conditions: ABC-DLBCL IkBa-CBG/CBR reporter, luminescence ratio (green luciferase fused to IkBa over red control in TMD8 lymphoma cells), 4 h
Outline: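 Compounds up to 46 uM were incubated four hours with TMD8 cells whose green CBG68 luciferase is fused to IkappaBalpha; red CBR luminescence normalised the signal, and concentration-effect curves were fitted to fusion, red and ratio data.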

[1] = measured here: IkBa-CBG green luminescence
[2] = measured here: CBR red luminescence, cell number

Q: With `CN(C(=O)CSc1nc2c(c(=O)[nH]1)CCC2)c1ccccc1` as the compound, how does the AC50 [1] read?
A: 6.31 µM [rising, full curve, poor fit]

Q: Which AC50 [2] does the source give for `CCOc1ccc(N(CC)C(=O)COc2cc(=O)n(CC)c3ccccc23)cc1` here?
A: 20.6 µM [falling, single point]

Q: With `Nc1nc(F)nc2c1ncn2[C@@H]1O[C@H](CO)[C@@H](O)[C@@H]1O` as the compound, how does the AC50 [2] read?
A: 20.6 µM [rising, single point]

Q: Which AC50 [2] does the source give for `CC1CCc2sc(C(=O)NC(C)C3CCCO3)cc2C1` (configuration not stated) here?
A: 6.31 µM [falling, partial curve, poor fit]

Q: For `Cc1ccc(CN(C)Cc2cc(=O)oc3cc(C)c(Cl)cc23)cc1`, which AC50 [2] is on record?
A: 5.01 µM [rising, full curve, poor fit]

Q: Which AC50 [2] does the source give for `COc1ccccc1-c1ccc(=O)n(CC(=O)Nc2ccc(C(=O)N3CCCC3)cc2)n1` here?
A: 11.2 µM [rising, partial curve, poor fit]

Q: For `Cc1c(OCC(F)(F)F)ccnc1CS(=O)c1nc2ccccc2[nH]1` (configuration not stated), which AC50 [2] is on record?
A: 3.98 µM [rising, partial curve, poor fit]

Q: For `CCc1ccccc1NC1=CC(=O)CC(C)(C)C1`, which AC50 [2] is on record?
A: 28.2 µM [rising, single point]

Q: For `CCN(CC)S(=O)(=O)c1ccc(NC(=O)C2c3ccccc3Oc3ccccc32)cc1`, which AC50 [2] is on record?
A: 20.6 µM [rising, partial curve, poor fit]

Q: With `COc1cccc2sc(NN)nc12` as the compound, how does the AC50 [2] read?
A: 10 µM [falling, partial curve, poor fit]

Q: With `O=C(c1cccc(F)c1)N1CCN(c2ccc([N+](=O)[O-])c3cccnc23)CC1` as the compound, how does the AC50 [2] read?
A: 12.6 µM [rising, partial curve, poor fit]

Q: Which AC50 [2] does the source give for `COc1ccccc1NC(=O)CSc1nc2ccccc2cc1Cc1ccccc1` here?
A: 3.55 µM [falling, full curve]

Q: For `CC(C)Nc1nc(Cl)nc(NC2CCCCC2)n1`, which AC50 [2] is on record?
A: 15.8 µM [falling, partial curve, poor fit]

Q: Which AC50 [2] does the source give for `O=C(Nc1ccc2[nH]ncc2c1)c1cccc(F)c1` here?
A: 35.5 µM [falling, single point]

Q: With `COc1ccc(-c2cc(OC)c3c(C)oc(C)c3c(=O)c2)cc1OC` as the compound, how does the AC50 [2] read?
A: 35.5 µM [falling, single point]

Q: With `CNC(=O)c1c(NC(=O)c2ccc(S(=O)(=O)N3CCCC3)cc2)sc2c1CCN(C(C)C)C2` as the compound, how does the AC50 [2] read?
A: 0.631 µM [rising, full curve, poor fit]

Q: With `CCCCN(CC)C(=O)c1ccc2c(c1)OCO2` as the compound, how does the AC50 [2] read?
A: 1.46 µM [rising, full curve, poor fit]

Q: Which AC50 [2] does the source give for `Cc1ccccc1-n1c(SCc2ccccn2)nc2n[nH]c(C)c2c1=N` here?
A: 6.51 µM [falling, partial curve, poor fit]

Q: With `COCCN(Cc1cc2cc(C)cc(C)c2nc1Cl)C(=O)Nc1ccccc1` as the compound, how does the AC50 [1] read?
A: 14.6 µM [falling, partial curve]

Q: Which AC50 [2] does the source give for `CC1(C)Cc2c(ccc3ccccc23)/C(=C/C#N)N1` here?
A: 12.6 µM [rising, partial curve, poor fit]

Q: Which AC50 [2] does the source give for `CC(=O)Nc1ccc(NC(=O)COC(=O)c2c(-c3ccccc3)noc2C)cc1` here?
A: 18.4 µM [falling, single point]

Q: Which AC50 [2] does the source give for `CCOC(=O)C1CCCN(C(=O)CN2CCN(Cc3ccc(Cl)cc3)C2=O)C1` (configuration not stated) here?
A: 2.06 µM [falling, full curve, poor fit]

Q: With `Cc1ccc(S(=O)(=O)NCCCN(C)C)cc1` as the compound, how does the AC50 [2] read?
A: 4.47 µM [rising, single point]

Q: Which AC50 [2] does the source give for `CCSc1cc(N2CC(C)OC(C)C2)nc(-c2ccccc2Cl)n1` (configuration not stated) here?
A: 6.51 µM [rising, partial curve]

Q: With `O=C1c2ccccc2NC(c2ccc(-c3ccc(C(F)(F)F)cc3)o2)N1O` (configuration not stated) as the compound, how does the AC50 [2] read?
A: 20.6 µM [falling, partial curve, poor fit]

Q: With `CC(C)N1CCc2c(sc(NC(=O)c3cc4cc([N+](=O)[O-])ccc4s3)c2C(N)=O)C1` as the compound, how does the AC50 [2] read?
A: 22.4 µM [falling, single point]

Q: Which AC50 [2] does the source give for `CCc1ccc(CN(C)C(=O)CCc2nnc(-c3ccc(-c4ccccc4)cc3)o2)nc1` here?
A: 14.1 µM [falling, single point]

Q: With `Cc1cc(C)nc(NS(=O)(=O)c2ccc(NC(=O)CN3C(=O)S/C(=C\c4ccccc4)C3=O)cc2)n1` as the compound, how does the AC50 [2] read?
A: 23.1 µM [falling, single point]

Q: What about the AC50 [1] of the same compound?
A: 20.6 µM [falling, partial curve, poor fit]

Q: For `O=C(COc1ccc(/C=N/NC(=O)C(=O)N2CCCCC2)cc1)Nc1ccccc1Cl`, which AC50 [2] is on record?
A: 5.62 µM [falling, partial curve, poor fit]

Q: Which AC50 [2] does the source give for `O=c1/c(=C/c2ccccn2)sc2nc3ccccc3n12` here?
A: 0.316 µM [rising, full curve, poor fit]

Q: With `CCCCn1c(N2CCC(Cc3ccccc3)CC2)nc2c1c(=O)[nH]c(=O)n2C` as the compound, how does the AC50 [2] read?
A: 16.4 µM [falling, single point]

Q: With `S=c1[nH]nc(-c2ccccc2)o1` as the compound, how does the AC50 [2] read?
A: 35.5 µM [falling, single point]

Q: With `O=C(CN1C(=O)c2cccc3cccc1c23)NCc1cccnc1` as the compound, how does the AC50 [2] read?
A: 0.116 µM [falling, full curve, poor fit]

Q: With `Cc1ccc(N=C2NC(=O)CS2)c(C)c1` as the compound, how does the AC50 [2] read?
A: 5.8 µM [rising, partial curve, poor fit]

Q: Which AC50 [2] does the source give for `CCOC(=O)c1ccc(NC(=O)CN2CCc3ccccc3C2)cc1` here?
A: 13 µM [rising, partial curve, poor fit]

Q: Which AC50 [2] does the source give for `CCOC(=O)/C(=N\Nc1ncnc2ccccc12)c1ccc(OC)cc1` here?
A: 14.1 µM [falling, single point]

Q: For `CC1=C(CC(=O)c2ccccc2)C(=O)c2ccccc2C1=O`, which AC50 [2] is on record?
A: 35.5 µM [falling, single point]

Q: For `NC(=O)c1ccc(NC(=O)CCc2nc3ccccc3s2)cc1`, which AC50 [2] is on record?
A: 35.5 µM [falling, partial curve, poor fit]

Q: With `O=C1c2ccccc2NC(c2ccc(-c3ccccc3F)o2)N1O` (configuration not stated) as the compound, how does the AC50 [2] read?
A: 18.4 µM [falling, partial curve]

Q: With `Cc1cc(-c2ccc(N3CCOCC3)cc2)nc2ccccc12` as the compound, how does the AC50 [2] read?
A: 2.91 µM [rising, full curve]

Q: For `O=c1oc2ccccc2c2c1C1O[C@](c3ccsc3)(Cc3ccccc31)O2`, which AC50 [2] is on record?
A: 0.355 µM [falling, full curve, poor fit]
